In US20100035932A1, “NOVEL FORMYL PEPTIDE RECEPTOR LIKE 1 AGONISTS THAT INDUCE MACROPHAGE TUMOR NECROSIS FACTOR ALPHA AND COMPUTATIONAL STRUCTURE-ACTIVITY RELATIONSHIP ANALYSIS OF THEREOF” (priority 2008, published 2010) one finds Endotoxin contamination data, which are given here for two compounds.

Each structure is given as a SMILES string.

The data set in a line: Endotoxin assay (Limulus Amebocyte Lysate). Particulars: below detection limit.

For `O=C(N/N=C/c1ccc(-c2cccc(Br)c2)o1)c1cccnc1` [Compound 1], the Endotoxin contamination entry was “contained no endotoxin”.
In the case of `O=C(N/N=C/c1ccc(-c2cccc(C(F)(F)F)c2)o1)c1ccc(F)cc1` [Compound 2, 4-fluoro-benzoic acid [5-(3-trifluoromethyl-phenyl)-2-furyl]methylene-hydrazide], the Endotoxin contamination entry was “contained no endotoxin”.
